The other results are listed elsewhere or left out.
Columns and labels:
Test in all cases: log2 fold change, soluble protein after heating vs DMSO (PISA); higher = thermal stabilisation; K562 lysate, 10 uM; active = over 0.2 and 3.5 SD of the protein, either way, in both replicates (recomputed)
vemurafenib = compound: CCCS(=O)(=O)Nc1ccc(F)c(C(=O)c2c[nH]c3ncc(-c4ccc(Cl)cc4)cc23)c1F [vemurafenib]
How it was run: (§1)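 Log-two fold change in thermal stability relative to solvent controls is reported from duplicates. For each sample, crude K562 extract from dounce-homogenised pellets in PBS pH 7.4 with 1 mM MgCl2, at 1 mg/mL protein, was treated with 10 μM compound for 30 min. Aliquots heated for 3 min across 48°C-58°C were pooled, brought to 0.5% NP-40 at 4°C and cleared at 21,000xg for 90 min. The supernatant was quantified by TMTpro 16plex LC-MS/MS with channel sums equalised.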

By UniProt entry, the sequences of proteins in these tests, tags left out. Where a name states a change or a piece, a line headed by the entry shows the natural chain unless it says otherwise.
UniProt Q9UBN7: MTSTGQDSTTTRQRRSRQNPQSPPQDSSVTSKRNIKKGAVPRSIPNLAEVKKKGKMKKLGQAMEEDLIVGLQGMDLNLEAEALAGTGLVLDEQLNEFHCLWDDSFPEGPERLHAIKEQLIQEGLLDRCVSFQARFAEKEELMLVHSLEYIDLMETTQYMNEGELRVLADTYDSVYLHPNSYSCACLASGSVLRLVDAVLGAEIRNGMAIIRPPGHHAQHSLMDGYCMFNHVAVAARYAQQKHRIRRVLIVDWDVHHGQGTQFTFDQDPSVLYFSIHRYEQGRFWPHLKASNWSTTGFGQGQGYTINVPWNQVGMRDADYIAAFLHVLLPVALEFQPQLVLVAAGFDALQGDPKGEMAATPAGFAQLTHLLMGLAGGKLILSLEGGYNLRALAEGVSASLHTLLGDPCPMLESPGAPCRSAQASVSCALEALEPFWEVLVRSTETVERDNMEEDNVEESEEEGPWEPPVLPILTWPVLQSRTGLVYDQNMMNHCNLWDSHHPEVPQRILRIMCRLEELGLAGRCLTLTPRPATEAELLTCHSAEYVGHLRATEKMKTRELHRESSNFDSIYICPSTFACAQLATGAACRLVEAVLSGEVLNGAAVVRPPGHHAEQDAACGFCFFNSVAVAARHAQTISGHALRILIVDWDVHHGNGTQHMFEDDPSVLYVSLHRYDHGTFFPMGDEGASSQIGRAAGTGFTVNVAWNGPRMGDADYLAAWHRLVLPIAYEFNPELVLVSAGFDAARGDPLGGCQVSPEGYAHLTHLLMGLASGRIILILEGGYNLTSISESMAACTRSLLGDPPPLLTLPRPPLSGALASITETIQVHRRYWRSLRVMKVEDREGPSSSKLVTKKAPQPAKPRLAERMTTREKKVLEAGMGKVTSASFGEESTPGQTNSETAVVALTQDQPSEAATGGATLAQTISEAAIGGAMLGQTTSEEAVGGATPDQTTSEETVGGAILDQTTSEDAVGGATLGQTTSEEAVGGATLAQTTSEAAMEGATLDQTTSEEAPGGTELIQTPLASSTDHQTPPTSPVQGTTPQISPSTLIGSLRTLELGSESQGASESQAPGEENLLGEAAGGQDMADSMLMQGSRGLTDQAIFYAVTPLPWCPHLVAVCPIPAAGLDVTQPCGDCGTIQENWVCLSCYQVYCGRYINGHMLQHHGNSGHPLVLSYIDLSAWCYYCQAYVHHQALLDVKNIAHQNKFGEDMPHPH
UniProt Q13889: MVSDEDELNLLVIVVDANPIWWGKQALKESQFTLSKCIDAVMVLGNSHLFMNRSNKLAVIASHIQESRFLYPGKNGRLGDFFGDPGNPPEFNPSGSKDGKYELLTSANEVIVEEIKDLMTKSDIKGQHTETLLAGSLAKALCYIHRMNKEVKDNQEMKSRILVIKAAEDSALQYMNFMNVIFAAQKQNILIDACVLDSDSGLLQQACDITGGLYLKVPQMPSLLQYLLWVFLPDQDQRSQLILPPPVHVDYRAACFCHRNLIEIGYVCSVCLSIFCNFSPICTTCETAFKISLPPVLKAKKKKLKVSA
UniProt Q8TAA5: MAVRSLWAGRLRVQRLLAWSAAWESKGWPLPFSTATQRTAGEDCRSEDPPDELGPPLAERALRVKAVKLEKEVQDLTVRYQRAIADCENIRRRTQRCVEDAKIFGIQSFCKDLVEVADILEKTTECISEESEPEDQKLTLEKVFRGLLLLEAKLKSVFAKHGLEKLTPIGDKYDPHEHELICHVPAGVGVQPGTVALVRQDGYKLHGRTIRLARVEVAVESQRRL
UniProt P29083: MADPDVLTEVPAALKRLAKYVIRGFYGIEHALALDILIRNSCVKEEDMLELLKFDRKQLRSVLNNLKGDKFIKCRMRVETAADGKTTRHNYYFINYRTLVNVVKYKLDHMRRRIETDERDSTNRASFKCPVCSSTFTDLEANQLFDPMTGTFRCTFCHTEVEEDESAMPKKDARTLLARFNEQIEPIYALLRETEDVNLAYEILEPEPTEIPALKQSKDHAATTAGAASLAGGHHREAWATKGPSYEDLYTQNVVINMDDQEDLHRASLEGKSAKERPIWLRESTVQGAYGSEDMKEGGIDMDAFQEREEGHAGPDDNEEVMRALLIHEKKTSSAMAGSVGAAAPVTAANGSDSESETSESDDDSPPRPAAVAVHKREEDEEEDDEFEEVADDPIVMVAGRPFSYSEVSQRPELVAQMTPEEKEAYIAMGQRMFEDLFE
UniProt Q00403, whole entry, looked up: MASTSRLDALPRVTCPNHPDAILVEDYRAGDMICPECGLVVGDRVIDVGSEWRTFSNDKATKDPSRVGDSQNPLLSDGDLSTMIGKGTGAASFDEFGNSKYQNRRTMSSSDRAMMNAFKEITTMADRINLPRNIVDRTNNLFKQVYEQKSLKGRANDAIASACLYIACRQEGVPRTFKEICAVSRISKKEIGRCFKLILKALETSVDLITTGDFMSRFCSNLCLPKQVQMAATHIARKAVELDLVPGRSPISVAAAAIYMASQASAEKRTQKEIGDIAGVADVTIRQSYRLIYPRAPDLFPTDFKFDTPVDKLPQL
UniProt Q9H0R4: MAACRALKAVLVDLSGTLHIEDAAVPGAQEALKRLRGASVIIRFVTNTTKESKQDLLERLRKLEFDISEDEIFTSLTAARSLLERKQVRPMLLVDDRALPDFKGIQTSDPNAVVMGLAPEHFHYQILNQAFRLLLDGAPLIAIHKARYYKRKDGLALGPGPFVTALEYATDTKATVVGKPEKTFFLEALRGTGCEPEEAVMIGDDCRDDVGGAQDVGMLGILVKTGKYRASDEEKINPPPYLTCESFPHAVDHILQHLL
UniProt Q03013: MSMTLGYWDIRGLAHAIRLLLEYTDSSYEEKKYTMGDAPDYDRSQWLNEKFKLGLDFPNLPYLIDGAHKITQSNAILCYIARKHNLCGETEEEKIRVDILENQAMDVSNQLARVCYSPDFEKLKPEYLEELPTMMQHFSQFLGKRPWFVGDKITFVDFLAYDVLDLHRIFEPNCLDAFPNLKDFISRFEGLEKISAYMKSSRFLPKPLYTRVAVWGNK
UniProt Q8IYU2: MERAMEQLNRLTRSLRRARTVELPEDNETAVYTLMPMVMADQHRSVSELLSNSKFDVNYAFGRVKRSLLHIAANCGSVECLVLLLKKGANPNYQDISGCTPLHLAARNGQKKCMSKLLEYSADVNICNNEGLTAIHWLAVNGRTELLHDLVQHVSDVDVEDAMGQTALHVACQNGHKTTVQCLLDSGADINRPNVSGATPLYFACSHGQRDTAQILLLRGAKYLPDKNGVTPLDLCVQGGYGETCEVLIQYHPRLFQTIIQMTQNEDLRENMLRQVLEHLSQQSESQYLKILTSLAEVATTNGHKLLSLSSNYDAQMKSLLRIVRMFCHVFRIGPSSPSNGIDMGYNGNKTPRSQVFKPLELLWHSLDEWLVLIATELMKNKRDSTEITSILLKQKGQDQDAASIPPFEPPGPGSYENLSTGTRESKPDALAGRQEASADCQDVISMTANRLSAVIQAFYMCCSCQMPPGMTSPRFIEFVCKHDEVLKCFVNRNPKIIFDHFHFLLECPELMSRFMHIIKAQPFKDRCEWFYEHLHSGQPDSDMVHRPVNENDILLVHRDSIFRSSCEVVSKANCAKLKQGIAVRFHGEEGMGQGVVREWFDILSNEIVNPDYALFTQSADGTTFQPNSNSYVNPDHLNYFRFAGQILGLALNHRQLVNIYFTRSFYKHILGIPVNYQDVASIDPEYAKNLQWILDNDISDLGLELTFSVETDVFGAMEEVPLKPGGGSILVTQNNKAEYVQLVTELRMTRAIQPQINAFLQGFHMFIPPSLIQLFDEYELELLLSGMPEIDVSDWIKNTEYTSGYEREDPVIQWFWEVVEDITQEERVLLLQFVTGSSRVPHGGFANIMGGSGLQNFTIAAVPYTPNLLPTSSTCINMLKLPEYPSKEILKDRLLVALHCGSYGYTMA
UniProt P46976: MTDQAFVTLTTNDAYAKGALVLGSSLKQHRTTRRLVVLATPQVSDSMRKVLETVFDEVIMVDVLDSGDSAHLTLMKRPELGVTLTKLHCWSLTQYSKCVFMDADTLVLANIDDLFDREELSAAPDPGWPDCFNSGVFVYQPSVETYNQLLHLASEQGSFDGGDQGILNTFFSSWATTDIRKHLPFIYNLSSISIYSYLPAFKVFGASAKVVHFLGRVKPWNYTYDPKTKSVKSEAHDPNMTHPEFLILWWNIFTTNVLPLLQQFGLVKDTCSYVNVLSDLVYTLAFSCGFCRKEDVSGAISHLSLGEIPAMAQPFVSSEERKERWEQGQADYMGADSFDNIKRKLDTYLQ
UniProt Q8N4P3, whole entry, looked up: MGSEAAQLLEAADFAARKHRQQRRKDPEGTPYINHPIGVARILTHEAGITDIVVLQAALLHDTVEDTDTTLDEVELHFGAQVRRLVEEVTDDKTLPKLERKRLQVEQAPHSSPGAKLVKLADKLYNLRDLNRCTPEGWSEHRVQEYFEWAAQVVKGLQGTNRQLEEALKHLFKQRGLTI
UniProt Q12789: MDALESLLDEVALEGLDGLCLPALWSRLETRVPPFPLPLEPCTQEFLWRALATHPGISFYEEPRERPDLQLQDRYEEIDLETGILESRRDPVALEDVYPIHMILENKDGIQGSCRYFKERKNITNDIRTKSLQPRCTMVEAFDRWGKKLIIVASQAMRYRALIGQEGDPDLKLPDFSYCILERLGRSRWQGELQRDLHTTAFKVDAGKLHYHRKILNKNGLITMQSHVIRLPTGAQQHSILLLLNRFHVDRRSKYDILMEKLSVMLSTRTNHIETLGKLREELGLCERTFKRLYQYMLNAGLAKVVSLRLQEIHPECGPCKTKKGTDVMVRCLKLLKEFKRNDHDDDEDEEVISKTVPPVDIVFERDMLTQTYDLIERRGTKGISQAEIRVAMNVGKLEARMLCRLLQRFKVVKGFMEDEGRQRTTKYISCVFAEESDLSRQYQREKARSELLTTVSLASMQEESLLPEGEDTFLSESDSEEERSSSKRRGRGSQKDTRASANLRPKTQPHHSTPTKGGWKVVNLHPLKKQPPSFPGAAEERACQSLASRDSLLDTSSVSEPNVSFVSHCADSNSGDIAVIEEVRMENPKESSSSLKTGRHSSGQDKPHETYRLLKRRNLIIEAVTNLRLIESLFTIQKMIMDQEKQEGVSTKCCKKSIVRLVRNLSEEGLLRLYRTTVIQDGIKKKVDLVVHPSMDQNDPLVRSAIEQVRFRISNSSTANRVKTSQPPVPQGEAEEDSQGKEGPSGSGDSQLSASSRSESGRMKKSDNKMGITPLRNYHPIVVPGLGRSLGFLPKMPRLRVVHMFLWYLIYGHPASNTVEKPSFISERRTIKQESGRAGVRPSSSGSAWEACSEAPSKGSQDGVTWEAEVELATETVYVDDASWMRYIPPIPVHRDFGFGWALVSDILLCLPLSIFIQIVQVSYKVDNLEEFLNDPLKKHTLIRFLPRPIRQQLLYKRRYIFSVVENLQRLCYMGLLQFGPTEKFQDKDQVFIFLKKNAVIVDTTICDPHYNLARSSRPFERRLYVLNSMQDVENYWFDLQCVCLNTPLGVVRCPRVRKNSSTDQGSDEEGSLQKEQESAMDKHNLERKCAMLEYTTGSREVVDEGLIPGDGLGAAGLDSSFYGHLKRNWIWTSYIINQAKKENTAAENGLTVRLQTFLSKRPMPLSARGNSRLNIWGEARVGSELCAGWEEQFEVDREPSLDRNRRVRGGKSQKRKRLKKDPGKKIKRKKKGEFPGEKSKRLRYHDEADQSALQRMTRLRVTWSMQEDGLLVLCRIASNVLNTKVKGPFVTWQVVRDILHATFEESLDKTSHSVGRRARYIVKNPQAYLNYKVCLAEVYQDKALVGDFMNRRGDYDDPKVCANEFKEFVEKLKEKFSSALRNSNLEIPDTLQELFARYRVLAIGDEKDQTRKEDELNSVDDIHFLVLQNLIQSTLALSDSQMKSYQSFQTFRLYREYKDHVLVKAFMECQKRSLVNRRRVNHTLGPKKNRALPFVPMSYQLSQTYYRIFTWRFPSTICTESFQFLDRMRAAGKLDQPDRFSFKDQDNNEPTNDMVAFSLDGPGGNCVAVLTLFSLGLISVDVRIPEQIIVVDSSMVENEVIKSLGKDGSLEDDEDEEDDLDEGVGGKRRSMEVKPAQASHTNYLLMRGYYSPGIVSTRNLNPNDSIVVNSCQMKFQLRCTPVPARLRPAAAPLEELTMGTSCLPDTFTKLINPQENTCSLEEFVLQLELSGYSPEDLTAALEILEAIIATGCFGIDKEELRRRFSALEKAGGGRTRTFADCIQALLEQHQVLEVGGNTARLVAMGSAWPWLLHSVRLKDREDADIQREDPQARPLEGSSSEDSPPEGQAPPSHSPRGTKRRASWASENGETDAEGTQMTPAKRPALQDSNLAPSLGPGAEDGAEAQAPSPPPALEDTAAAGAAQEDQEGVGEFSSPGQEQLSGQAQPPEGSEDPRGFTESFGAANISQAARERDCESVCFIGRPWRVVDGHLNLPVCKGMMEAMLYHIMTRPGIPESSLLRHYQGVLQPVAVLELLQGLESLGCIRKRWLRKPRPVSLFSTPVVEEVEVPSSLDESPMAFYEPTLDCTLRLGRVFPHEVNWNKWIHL

[1] = compound: CCCS(=O)(=O)Nc1ccc(F)c(C(=O)c2c[nH]c3ncc(Cl)cc23)c1F
How it was run: as §1

barasertib = compound: CCN(CCCOc1ccc2c(Nc3cc(CC(=O)Nc4cccc(F)c4)[nH]n3)ncnc2c1)CCOP(=O)(O)O [barasertib]
How it was run: as §1

[2] = compound: CC[C@@H]1C(=O)N(C)c2cnc(Nc3ccc(C(=O)NC4CCN(C)CC4)cc3OC)nc2N1C1CCCC1
How it was run: as §1

volasertib = compound: CC[C@@H]1C(=O)N(C)c2cnc(Nc3ccc(C(=O)N[C@H]4CC[C@H](N5CCN(CC6CC6)CC5)CC4)cc3OC)nc2N1C(C)C [volasertib]
How it was run: as §1

[3] = compound: CCn1c(C(=O)N(C2CC2)C2CC2)cc2c3c(ncn3C)c(Nc3cc(C)n(C)n3)nc21
How it was run: as §1

[4] = compound: CCn1cc(-c2ccnc3[nH]c(-c4cccc(CN(C)C)c4)cc23)c(-c2ccc(NC(=O)N(C)C)cc2)n1
How it was run: as §1

[5] = compound: CN1CCC(CNc2ccc3ncc(-c4cccc(OC(F)(F)F)c4)n3n2)CC1
How it was run: as §1

saracatinib = compound: CN1CCN(CCOc2cc(OC3CCOCC3)c3c(Nc4c(Cl)ccc5c4OCO5)ncnc3c2)CC1 [saracatinib]
How it was run: as §1

sotrastaurin = compound: CN1CCN(c2nc(C3=C(c4c[nH]c5ccccc45)C(=O)NC3=O)c3ccccc3n2)CC1 [sotrastaurin]
How it was run: as §1

Row | Target | log2 fold change (vemurafenib) | log2 fold change [1] | log2 fold change (barasertib) | log2 fold change [2] | log2 fold change (volasertib) | log2 fold change [3] | log2 fold change [4] | log2 fold change [5] | log2 fold change (saracatinib) | log2 fold change (sotrastaurin)
1 | HEATR5A (UniProt Q86XA9) | inactive: 0.016 | inactive: 0.026 | inactive: -0.026 | inactive: -0.01 | inactive: 0.002 | inactive: 0.028 | inactive: 0.024 | inactive: -0.067 | inactive: -0.019 | inactive: 0.009
2 | GXYLT1 (UniProt Q4G148) | inactive: 0.003 | inactive: 0.004 | inactive: -0.07 | inactive: -0.149 | inactive: 0.007 | inactive: -0.012 | inactive: -0.113 | inactive: -0.009 | inactive: -0.116 | inactive: -0.004
3 | GYPA (UniProt P02724) | inactive: -0.011 | inactive: -0.008 | inactive: 0.254 | inactive: 0.188 | inactive: 0.009 | inactive: -0.081 | active: 0.587 | inactive: -0.259 | inactive: 0.01 | inactive: 0.011
4 | HDAC6 (UniProt Q9UBN7) | inactive: -0.02 | inactive: 0.01 | inactive: -0.017 | inactive: -0.035 | inactive: -0.047 | inactive: -0.023 | inactive: 0.073 | inactive: -0.011 | inactive: -0.011 | inactive: 0.008
5 | GTF2H3 (UniProt Q13889) | inactive: 0.005 | inactive: -0.001 | inactive: 0.006 | inactive: -0.015 | inactive: -0.036 | inactive: -0.031 | inactive: -0.076 | inactive: 0.032 | inactive: -0.023 | inactive: 0.019
6 | GRPEL2 (UniProt Q8TAA5) | inactive: 0.012 | inactive: 0.026 | inactive: 0.007 | inactive: 0.002 | inactive: 0.009 | inactive: -0.004 | inactive: -0.223 | inactive: 0.053 | inactive: 0.024 | inactive: 0.015
7 | GTF2E1 (UniProt P29083) | inactive: 0.011 | inactive: 0.021 | inactive: -0.003 | inactive: 0.014 | inactive: 0.025 | inactive: -0.014 | inactive: -0.181 | inactive: 0.051 | inactive: -0.02 | inactive: 0.011
8 | GTF2B (UniProt Q00403) | inactive: 0.059 | inactive: 0.013 | inactive: -0.017 | inactive: 0.019 | inactive: -0.026 | inactive: 0.021 | inactive: -0.046 | inactive: -0.003 | inactive: -0.029 | inactive: -0.008
9 | HDAC8 (UniProt Q9BY41) | inactive: 0.051 | inactive: 0.06 | inactive: -0.135 | inactive: -0.034 | inactive: -0.084 | inactive: -0.018 | inactive: -0.057 | inactive: 0.169 | inactive: 0.04 | inactive: -0.029
10 | GTF2H1 (UniProt P32780) | inactive: 0.013 | inactive: 0.014 | inactive: 0.014 | inactive: -0.021 | inactive: -0.028 | inactive: -0.028 | inactive: -0.042 | inactive: -0.075 | inactive: 0.018 | inactive: -0.012
11 | HADHB (UniProt P55084) | inactive: -0.019 | inactive: -0.004 | inactive: -0.124 | inactive: 0.047 | inactive: 0.099 | inactive: -0.005 | inactive: -0.001 | inactive: 0.074 | inactive: 0.012 | inactive: -0.069
12 | HDHD2 (UniProt Q9H0R4) | inactive: -0.018 | inactive: -0.02 | inactive: -0.026 | inactive: -0.019 | inactive: 0.032 | inactive: 0.012 | inactive: 0.011 | inactive: 0.016 | inactive: -0.011 | inactive: 0.046
13 | HAUS6 (UniProt Q7Z4H7) | inactive: 0.004 | inactive: 0.092 | inactive: 0.025 | inactive: 0.012 | inactive: -0.068 | inactive: 0.015 | inactive: -0.063 | inactive: 0.014 | inactive: 0.01 | inactive: 0.022
14 | HDAC4 (UniProt P56524) | inactive: 0.02 | inactive: 0 | inactive: -0.009 | inactive: -0.065 | inactive: 0.028 | inactive: -0.013 | inactive: -0.032 | inactive: 0.025 | inactive: 0.013 | inactive: 0
15 | H2AFX (UniProt P16104) | inactive: 0.008 | inactive: -0.001 | inactive: -0.04 | inactive: 0.05 | inactive: -0.043 | inactive: 0.029 | inactive: -0.017 | inactive: 0.002 | inactive: -0.065 | inactive: -0.057
16 | HDGF (UniProt P51858) | inactive: -0.001 | inactive: -0.025 | inactive: -0.044 | inactive: 0.045 | inactive: 0.023 | inactive: -0.047 | inactive: 0.106 | inactive: -0.051 | inactive: -0.025 | inactive: 0.036
17 | GTPBP2 (UniProt Q9BX10) | inactive: 0.005 | inactive: 0.005 | inactive: 0.034 | inactive: -0.03 | inactive: -0.104 | inactive: 0.043 | inactive: 0.124 | inactive: -0.074 | inactive: 0.047 | inactive: 0.043
18 | GTF2A2 (UniProt P52657) | inactive: 0.011 | inactive: 0 | inactive: -0.005 | inactive: 0.003 | inactive: -0.013 | inactive: 0.011 | inactive: -0.011 | inactive: 0.058 | inactive: 0.03 | inactive: -0.052
19 | GSTM4 (UniProt Q03013) | inactive: 0.055 | inactive: 0.034 | inactive: -0.044 | inactive: 0.024 | inactive: 0.03 | inactive: 0.009 | inactive: -0.114 | inactive: 0.038 | inactive: -0.13 | inactive: -0.05
20 | HACE1 (UniProt Q8IYU2) | inactive: 0.066 | inactive: 0.07 | inactive: 0.081 | inactive: 0.069 | inactive: -0.058 | inactive: 0.039 | active: -0.657 | inactive: 0.252 | inactive: 0.025 | inactive: -0.154
21 | HDHD5 (UniProt Q9BXW7) | inactive: -0.033 | inactive: 0.043 | inactive: -0.137 | inactive: -0.076 | inactive: -0.02 | inactive: 0.01 | inactive: 0 | inactive: 0.011 | inactive: -0.06 | inactive: 0.05
22 | GYG1 isoform 2 (UniProt P46976) | inactive: -0.112 | inactive: 0.013 | inactive: -0.035 | inactive: -0.034 | inactive: -0.01 | inactive: -0.003 | inactive: 0.113 | inactive: 0.027 | inactive: 0.098 | inactive: 0.045
23 | GRSF1 (UniProt Q12849) | inactive: 0.056 | inactive: 0.028 | inactive: 0.01 | inactive: 0 | inactive: -0.032 | inactive: -0.025 | inactive: -0.076 | inactive: 0.031 | inactive: -0.015 | inactive: -0.003
24 | HDHD3 (UniProt Q9BSH5) | inactive: -0.038 | inactive: 0.038 | inactive: 0.137 | inactive: -0.002 | inactive: 0.025 | inactive: -0.043 | inactive: 0.009 | inactive: -0.011 | inactive: -0.032 | inactive: 0.033
25 | GRB10 (UniProt Q13322) | inactive: 0.001 | inactive: 0.051 | inactive: 0.054 | inactive: -0.054 | inactive: -0.103 | inactive: 0.012 | inactive: -0.023 | inactive: 0.016 | inactive: -0.082 | inactive: 0.028
26 | HARS2 (UniProt P49590) | inactive: 0.009 | inactive: 0.096 | inactive: 0.023 | inactive: 0.068 | inactive: -0.033 | inactive: 0.026 | inactive: 0.047 | inactive: 0.056 | inactive: -0.049 | inactive: 0.092
27 | HDDC3 (UniProt Q8N4P3) | inactive: -0.026 | inactive: -0.028 | inactive: 0.034 | inactive: -0.059 | inactive: -0.067 | inactive: -0.029 | inactive: -0.029 | inactive: 0.065 | inactive: 0.009 | inactive: 0.038
28 | GTF3C1 (UniProt Q12789) | inactive: 0.019 | inactive: 0.014 | inactive: 0.055 | inactive: -0.02 | inactive: -0.032 | inactive: 0.034 | inactive: -0.131 | inactive: 0.077 | inactive: -0.013 | inactive: -0.003
29 | HBQ1 (UniProt P09105) | inactive: 0.076 | inactive: 0.007 | inactive: 0.077 | inactive: -0.039 | inactive: 0.057 | inactive: -0.006 | inactive: -0.116 | inactive: -0.011 | inactive: 0.019 | inactive: -0.125
30 | HAUS3 (UniProt Q68CZ6) | inactive: 0.012 | inactive: 0.024 | inactive: 0.006 | inactive: -0.029 | inactive: -0.048 | inactive: 0.002 | inactive: -0.035 | inactive: -0.065 | inactive: -0.016 | inactive: 0.01

From no. 23 to 24, as listed above:
Row | Target | log2 fold change (vemurafenib) | log2 fold change [1] | log2 fold change (barasertib) | log2 fold change [2] | log2 fold change (volasertib) | log2 fold change [3] | log2 fold change [4] | log2 fold change [5] | log2 fold change (saracatinib) | log2 fold change (sotrastaurin)
23 | GRSF1 (UniProt Q12849) | inactive: 0.056 | inactive: 0.028 | inactive: 0.01 | inactive: 0 | inactive: -0.032 | inactive: -0.025 | inactive: -0.076 | inactive: 0.031 | inactive: -0.015 | inactive: -0.003
24 | HDHD3 (UniProt Q9BSH5) | inactive: -0.038 | inactive: 0.038 | inactive: 0.137 | inactive: -0.002 | inactive: 0.025 | inactive: -0.043 | inactive: 0.009 | inactive: -0.011 | inactive: -0.032 | inactive: 0.033

Source: the supplement of paper PMC10849652
